{
  "source": "PubChem BioAssay AID1479146",
  "about": "(National Center for Advancing Translational Sciences (NCATS), 2020)",
  "note": "Inconclusive means that the source gave no clear call. Such entries were picked first, then a sample of the others. Potencies beside an inconclusive call are fits to weak or partial responses and may not hold up. Calls of active or inactive are those of the source. The call rests on the fitted dose curve.",
  "data": [
    {"assay": "Confirmatory qHTS for Huh7 cytotoxicity: counterscreen for inhibitors of MERS-S pseudo-typed particle cell entry", "details": "viability; series mostly up to 57.1 µM", "values": [
      {"smiles": "NCCNc1ccc(NCCN)c2c1C(=O)c1ccncc1C2=O", "Potency": "inconclusive: 42.9 µM [cytotoxic, single point]"},
      {"smiles": "O=c1c(C2CC(c3ccc(-c4ccc(Br)cc4)cc3)Cc3ccccc32)c(O)sc2ccccc12", "note": "(centres undefined)", "Potency": "inactive"},
      {"smiles": "CN(C)CCC=C1c2ccccc2C(C)(C)c2ccccc21", "Potency": "inactive"},
      {"smiles": "CN1CCC[C@@H]1CCO[C@](C)(c1ccccc1)c1ccc(Cl)cc1", "Potency": "inconclusive: 12.1 µM [cytotoxic, full curve]"},
      {"smiles": "CC[C@@H]([C@H](C)O)n1ncn(-c2ccc(N3CCN(c4ccc(OC[C@@H]5CO[C@@](Cn6cncn6)(c6ccc(F)cc6F)C5)cc4)CC3)cc2)c1=O", "Potency": "inactive"},
      {"smiles": "COc1cccc2c1C(=O)c1c(O)c3c(c(O)c1C2=O)C[C@@](O)(C(=O)CO)C[C@@H]3O[C@H]1C[C@H](N)[C@H](OC2CCCCO2)[C@H](C)O1", "note": "(some centres undefined)", "Potency": "inconclusive: 10.8 µM [cytotoxic, full curve]"},
      {"smiles": "COc1cc2nccc(Oc3ccc(NC(=O)NC4CC4)c(Cl)c3)c2cc1C(N)=O", "Potency": "inactive"},
      {"smiles": "CCSc1ccc2c(c1)N(CCCN1CCN(C)CC1)c1ccccc1S2", "Potency": "inconclusive: 27.1 µM [cytotoxic, single point]"},
      {"smiles": "CC[C@@]1(O)C(=O)OCc2c1cc1n(c2=O)Cc2c-1nc1ccccc1c2/C=N/OC(C)(C)C", "Potency": "inconclusive: 15.2 µM [cytotoxic, partial curve, poor fit]"},
      {"smiles": "CC(=O)Oc1ccccc1C(=O)Nc1ncc([N+](=O)[O-])s1", "Potency": "inconclusive: 19.2 µM [cytotoxic, partial curve]"},
      {"smiles": "CN(C)CC/C=C1\\c2ccccc2Sc2ccc(Cl)cc21", "Potency": "inconclusive: 12.1 µM [cytotoxic, partial curve, poor fit]"},
      {"smiles": "COc1ccc2cc1Oc1ccc(cc1)C[C@H]1c3c(cc4c(c3Oc3cc5c(cc3OC)CCN(C)[C@@H]5C2)OCO4)CCN1C", "Potency": "inconclusive: 34.1 µM [cytotoxic, single point]"},
      {"smiles": "COc1ccc(Cc2nccc3cc(OC)c(OC)cc23)cc1OC", "Potency": "inconclusive: 10.8 µM [cytotoxic, partial curve]"},
      {"smiles": "CC(C)OC(=O)[C@H](C)N[P@](=O)(CO[C@H](C)Cn1cnc2c(N)ncnc21)Oc1ccccc1", "Potency": "inconclusive: 24.1 µM [cytotoxic, partial curve]"},
      {"smiles": "CN1CCC(=C2c3ccccc3C=Cc3ccccc32)CC1", "Potency": "inactive"},
      {"smiles": "O=C(Nc1ccc(Cl)cc1)Nc1ccc(Cl)c(C(F)(F)F)c1", "Potency": "inconclusive: 10.8 µM [cytotoxic, full curve]"},
      {"smiles": "CNC(=O)c1cc(Oc2ccc(NC(=O)Nc3ccc(Cl)c(C(F)(F)F)c3)c(F)c2)ccn1", "Potency": "inconclusive: 21.5 µM [cytotoxic, partial curve]"},
      {"smiles": "O=c1[nH]c(=O)n([C@H]2C[C@H](O)[C@@H](CO)O2)cc1C(F)(F)F", "Potency": "inconclusive: 27.1 µM [cytotoxic, single point]"},
      {"smiles": "CCCCCCNC(=O)n1cc(F)c(=O)[nH]c1=O", "Potency": "inactive"}
    ]}
  ]
}
